The chains behind the UniProt entries cited, without tags or fusion partners.
UniProt Q16666: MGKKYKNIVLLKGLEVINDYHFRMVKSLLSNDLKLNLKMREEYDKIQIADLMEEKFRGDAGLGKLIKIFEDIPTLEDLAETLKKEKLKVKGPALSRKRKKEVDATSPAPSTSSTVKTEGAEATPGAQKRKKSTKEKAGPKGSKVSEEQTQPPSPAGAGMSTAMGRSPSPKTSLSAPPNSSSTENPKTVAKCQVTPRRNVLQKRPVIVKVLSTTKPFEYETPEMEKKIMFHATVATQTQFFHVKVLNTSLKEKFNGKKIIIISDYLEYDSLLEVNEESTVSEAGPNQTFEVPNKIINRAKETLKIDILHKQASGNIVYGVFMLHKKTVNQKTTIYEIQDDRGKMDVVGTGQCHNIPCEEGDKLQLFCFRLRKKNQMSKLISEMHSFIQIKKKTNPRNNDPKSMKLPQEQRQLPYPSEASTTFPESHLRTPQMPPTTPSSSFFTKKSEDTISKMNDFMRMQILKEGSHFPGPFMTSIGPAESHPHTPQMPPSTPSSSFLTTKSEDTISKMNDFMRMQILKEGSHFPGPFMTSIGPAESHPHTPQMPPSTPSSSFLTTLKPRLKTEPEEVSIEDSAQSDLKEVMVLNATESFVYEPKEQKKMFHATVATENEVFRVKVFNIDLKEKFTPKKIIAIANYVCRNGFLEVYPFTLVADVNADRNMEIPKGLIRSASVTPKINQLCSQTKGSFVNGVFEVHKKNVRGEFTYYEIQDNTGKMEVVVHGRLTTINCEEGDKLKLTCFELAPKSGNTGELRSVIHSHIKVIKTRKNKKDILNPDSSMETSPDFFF
UniProt Q09028: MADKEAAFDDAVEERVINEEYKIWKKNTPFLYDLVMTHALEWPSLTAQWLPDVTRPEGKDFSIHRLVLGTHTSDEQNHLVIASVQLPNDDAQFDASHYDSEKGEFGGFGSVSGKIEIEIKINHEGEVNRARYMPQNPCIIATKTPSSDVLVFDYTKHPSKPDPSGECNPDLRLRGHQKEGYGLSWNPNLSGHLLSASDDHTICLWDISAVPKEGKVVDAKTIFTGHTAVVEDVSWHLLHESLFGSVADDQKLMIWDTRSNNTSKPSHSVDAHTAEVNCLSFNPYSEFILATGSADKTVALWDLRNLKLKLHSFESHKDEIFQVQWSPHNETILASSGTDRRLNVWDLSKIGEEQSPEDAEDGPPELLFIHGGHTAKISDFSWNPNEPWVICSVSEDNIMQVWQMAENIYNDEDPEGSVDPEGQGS
UniProt Q13547: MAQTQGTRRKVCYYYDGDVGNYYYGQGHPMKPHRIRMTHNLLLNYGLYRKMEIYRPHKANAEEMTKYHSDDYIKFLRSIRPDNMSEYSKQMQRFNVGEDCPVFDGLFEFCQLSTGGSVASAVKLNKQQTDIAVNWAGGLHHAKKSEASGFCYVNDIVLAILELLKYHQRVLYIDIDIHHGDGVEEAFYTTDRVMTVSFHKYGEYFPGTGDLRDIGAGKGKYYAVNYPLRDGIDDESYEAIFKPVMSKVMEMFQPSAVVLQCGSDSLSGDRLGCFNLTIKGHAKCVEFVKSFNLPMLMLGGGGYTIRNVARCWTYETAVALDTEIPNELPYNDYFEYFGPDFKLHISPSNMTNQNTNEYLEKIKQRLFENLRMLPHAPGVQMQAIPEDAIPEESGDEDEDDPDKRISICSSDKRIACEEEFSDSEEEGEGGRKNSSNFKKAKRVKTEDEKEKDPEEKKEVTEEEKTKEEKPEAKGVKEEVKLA
UniProt Q92769: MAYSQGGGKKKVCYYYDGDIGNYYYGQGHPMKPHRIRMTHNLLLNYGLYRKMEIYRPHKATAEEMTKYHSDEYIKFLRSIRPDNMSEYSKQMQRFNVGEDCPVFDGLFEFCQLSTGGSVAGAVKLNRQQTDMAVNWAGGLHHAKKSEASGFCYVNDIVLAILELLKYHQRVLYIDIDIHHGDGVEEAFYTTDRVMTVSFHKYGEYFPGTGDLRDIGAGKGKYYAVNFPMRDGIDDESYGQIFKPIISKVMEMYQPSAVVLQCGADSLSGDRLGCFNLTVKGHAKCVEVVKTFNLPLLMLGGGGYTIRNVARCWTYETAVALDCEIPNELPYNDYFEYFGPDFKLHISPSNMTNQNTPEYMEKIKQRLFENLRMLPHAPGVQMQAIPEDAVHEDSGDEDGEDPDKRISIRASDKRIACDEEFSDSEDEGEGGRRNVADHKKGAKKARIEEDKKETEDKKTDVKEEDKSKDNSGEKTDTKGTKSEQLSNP
UniProt Q9UKL0: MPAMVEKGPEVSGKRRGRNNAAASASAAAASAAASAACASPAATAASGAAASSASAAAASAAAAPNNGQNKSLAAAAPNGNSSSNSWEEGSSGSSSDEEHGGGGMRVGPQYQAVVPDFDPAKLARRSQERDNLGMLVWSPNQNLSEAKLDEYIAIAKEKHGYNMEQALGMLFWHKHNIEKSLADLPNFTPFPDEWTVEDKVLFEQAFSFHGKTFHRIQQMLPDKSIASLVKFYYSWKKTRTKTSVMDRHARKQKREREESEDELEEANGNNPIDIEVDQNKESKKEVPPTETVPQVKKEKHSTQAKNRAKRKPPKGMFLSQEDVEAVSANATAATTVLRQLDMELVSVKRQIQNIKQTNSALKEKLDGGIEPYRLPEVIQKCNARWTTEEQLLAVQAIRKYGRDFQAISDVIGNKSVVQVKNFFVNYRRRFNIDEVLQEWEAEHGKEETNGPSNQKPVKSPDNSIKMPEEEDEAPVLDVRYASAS
UniProt Q14839: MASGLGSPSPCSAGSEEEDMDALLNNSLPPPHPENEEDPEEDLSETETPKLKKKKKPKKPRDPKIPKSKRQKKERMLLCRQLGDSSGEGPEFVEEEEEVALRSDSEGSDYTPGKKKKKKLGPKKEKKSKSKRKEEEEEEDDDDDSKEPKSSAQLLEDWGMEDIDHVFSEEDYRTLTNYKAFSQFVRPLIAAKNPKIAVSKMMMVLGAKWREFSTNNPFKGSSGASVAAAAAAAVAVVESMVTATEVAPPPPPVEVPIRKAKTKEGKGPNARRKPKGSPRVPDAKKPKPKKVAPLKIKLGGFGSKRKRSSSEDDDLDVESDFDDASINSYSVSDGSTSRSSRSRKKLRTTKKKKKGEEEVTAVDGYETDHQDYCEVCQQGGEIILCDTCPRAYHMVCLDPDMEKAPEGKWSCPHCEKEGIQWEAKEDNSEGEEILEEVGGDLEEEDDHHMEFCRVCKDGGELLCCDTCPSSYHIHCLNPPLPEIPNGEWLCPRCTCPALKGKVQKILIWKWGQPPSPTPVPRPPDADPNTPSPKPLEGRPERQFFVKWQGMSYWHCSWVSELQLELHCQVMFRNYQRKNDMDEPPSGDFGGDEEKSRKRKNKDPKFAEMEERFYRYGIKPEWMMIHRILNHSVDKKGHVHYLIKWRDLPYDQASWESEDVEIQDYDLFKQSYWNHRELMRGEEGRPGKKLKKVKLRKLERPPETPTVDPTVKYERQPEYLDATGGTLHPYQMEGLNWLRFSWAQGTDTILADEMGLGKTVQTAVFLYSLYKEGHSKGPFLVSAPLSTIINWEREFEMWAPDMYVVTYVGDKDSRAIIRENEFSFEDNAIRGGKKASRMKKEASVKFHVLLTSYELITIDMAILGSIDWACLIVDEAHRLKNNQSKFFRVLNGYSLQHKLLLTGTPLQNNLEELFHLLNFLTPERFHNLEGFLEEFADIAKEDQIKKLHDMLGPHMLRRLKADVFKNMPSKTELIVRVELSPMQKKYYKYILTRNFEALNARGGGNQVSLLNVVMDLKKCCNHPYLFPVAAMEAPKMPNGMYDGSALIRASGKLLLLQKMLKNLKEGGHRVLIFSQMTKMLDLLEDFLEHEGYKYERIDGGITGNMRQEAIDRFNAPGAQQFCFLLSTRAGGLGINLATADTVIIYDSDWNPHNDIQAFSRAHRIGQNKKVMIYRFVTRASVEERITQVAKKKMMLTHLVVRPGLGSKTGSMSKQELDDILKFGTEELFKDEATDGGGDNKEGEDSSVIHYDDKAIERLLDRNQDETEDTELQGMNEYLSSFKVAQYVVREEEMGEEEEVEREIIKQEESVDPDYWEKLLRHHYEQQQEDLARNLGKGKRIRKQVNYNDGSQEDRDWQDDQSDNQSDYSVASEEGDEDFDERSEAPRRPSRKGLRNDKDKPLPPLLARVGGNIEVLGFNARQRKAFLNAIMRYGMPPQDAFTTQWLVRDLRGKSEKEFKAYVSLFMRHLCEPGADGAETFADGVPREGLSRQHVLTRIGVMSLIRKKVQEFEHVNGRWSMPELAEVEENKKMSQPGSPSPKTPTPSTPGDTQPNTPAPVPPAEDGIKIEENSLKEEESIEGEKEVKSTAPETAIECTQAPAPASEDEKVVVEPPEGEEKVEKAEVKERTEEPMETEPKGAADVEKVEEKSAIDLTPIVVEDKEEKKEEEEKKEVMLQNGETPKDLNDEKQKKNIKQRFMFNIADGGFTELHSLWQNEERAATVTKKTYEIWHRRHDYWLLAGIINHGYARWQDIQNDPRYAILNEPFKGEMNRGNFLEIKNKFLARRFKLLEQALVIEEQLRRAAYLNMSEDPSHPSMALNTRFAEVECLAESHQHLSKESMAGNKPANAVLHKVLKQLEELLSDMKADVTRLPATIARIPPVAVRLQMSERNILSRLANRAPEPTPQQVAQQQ

According to publication PMC12300445:

Target: interferon gamma-inducible protein 16 (IFI16) (human (endogenous in BCBL-1)) (UniProt Q16666)
Assay: affinity purification with mass spectrometry; 500 ug pre-cleared BCBL-1 whole cell lysate immunoprecipitated overnight at 4 °C with anti-IFI16 mouse monoclonal or rabbit polyclonal antibody or IgG; Protein A/G Dynabeads; on-bead trypsin digestion, LC-MS/MS, label-free quantification; enriched at Log2FC ≥ 0.6 over IgG

| binding | Molecule |
| --- | --- |
| binds | RBBP4 (RbAp48) (from UniProt Q09028 1-425) |
| binds | histone deacetylase 1 (HDAC1) (from UniProt Q13547 1-482) (enzyme) |
| binds | histone deacetylase 2 (HDAC2) (from UniProt Q92769 1-488) (enzyme) |
| no binding | CoREST (from UniProt Q9UKL0 1-485) |
| binds | CHD4 (from UniProt Q14839 1-1912) |
| binds | SAP18 (protein, UniProt O00422 1-153) MAVESRVTQEEIKKEPEKPIDREKTCPLLLRVFTTNNGRHHRMDEFSRGNVPSSELQIYTWMDATLKELTSLVKEVYPEARKKGTHFNFAIVFTDVKRPGYRVKEIGSTMSGRKGTDDSMTLQSQKFQIGDYLDIAITPPNRAPPPSGRMRPY |

These are yes or no findings as the source states them, for the method shown. In cells and extracts the contact can be indirect. These calls come from enrichment with a bait or labelling near it, and not all partners need be listed. No binding means not detected with the bait.
